Laboratory results: PubChem BioAssay AID504786 (Drosophila RNAi Screening Center, 2011)
Assay: 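Positive regulators of HIF-driven reporter output in Drosophila cells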 (primary screen). Cells: Drosophila S2 cells with a stable HIF luciferase reporter. Knock-down reagent: long dsRNA against Drosophila genes, about 0.2 µg dsRNA per well of a 384-well plate. Time to read-out: three days of knock-down, then 20 h of DFO before reading. Treatment: desferrioxamine (DFO) at 100 µM, an iron chelator that mimics hypoxia, for 20 h. Read-out: 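HIF reporter luminescence in cells given 100 µM DFO for 20 h, using the mouse ldh-a hypoxia-response element, scored as per-plate z-scores; higher means greater loss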. Direction: z-score: higher = stronger loss of HIF reporter signal.
In all, the deposit lists about 21,000 reagents; this is an unselected part of those with a known target gene and a result. 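Primary screen; positive scores mean lost reporter signal, so the sign may be inverted from the usual convention.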 Reagents against one gene are numbered here. A plus sign joins genes that one reagent is predicted to hit. Not all columns of the deposit are shown.

gene | reagent no. | z-score, replicate 1 | z-score, replicate 2 | z-score, replicate 3
CG31835 + CG42585 | 1 | 0.3 | 0.7 | –
dare | 1 | -0.2 | 0 | –
Amy-d + Amy-p | 1 | -0.3 | -0.7 | –
AkhR | 1 | -0.3 | -0.4 | –
CG31156 | 1 | -0.3 | -0.6 | –
CG31156 | 2 | 0 | 0.8 | –
gus | 1 | -0.2 | -0.2 | –
gus | 2 | 0 | 0.2 | -0.1
CG14107 | 1 | -0.1 | 3.2 | –
Edem1 | 1 | -0.1 | -0.3 | –
HDAC3 | 1 | 0.1 | 1 | –
CG15475 | 1 | 0 | -0.4 | –
pn | 1 | -0.2 | -0.4 | –
CG14805 | 1 | 0.2 | 1.1 | –
CG5665 | 1 | -0.1 | 0 | –
Xe7 | 1 | -0.4 | -0.7 | –
CG3760 | 1 | -0.2 | -0.3 | –
san | 1 | 0 | -0.3 | –
FAM21 | 1 | -0.2 | -0.4 | –
CG34236 | 1 | -0.2 | -0.1 | –
Nna1 | 1 | -0.3 | -0.2 | –
CG12715 | 1 | -0.2 | -0.4 | –
Srx | 1 | -0.3 | -0.7 | –
osy | 1 | -0.1 | 0.2 | –
osy | 2 | -0.4 | -0.5 | –
osy | 3 | -0.3 | 0.4 | –
kl-2 | 1 | -0.3 | -0.1 | –
stck | 1 | -0.3 | -0.3 | –
Ranbp16 | 1 | -0.4 | -0.7 | –
bap | 1 | -0.4 | -0.4 | –
Urod | 1 | 0.1 | 0.1 | –
CG31041 | 1 | -0.1 | -0.2 | –
krz | 1 | -0.4 | -0.5 | –
Det | 1 | -0.2 | -0.2 | –
CG1227 | 1 | -0.3 | -0.3 | –
CG3294 | 1 | -0.4 | -0.5 | –
Spn43Ab | 1 | 0.2 | 0.3 | –
CG44098 | 1 | -0.4 | 0.2 | –
CG44098 | 2 | -0.3 | -0.4 | –
cola + swif | 1 | -0.3 | -0.5 | –
CG42827 + CG42828 | 1 | -0.2 | 0 | -0.3
CG1523 | 1 | -0.3 | 0 | –
CG3287 (retired record) | 1 | -0.3 | -0.4 | –
CG31251 | 1 | -0.4 | 0.2 | –
MTA1-like | 1 | 0.1 | 0.3 | –
CG13299 | 1 | -0.4 | -0.7 | –
Rassf | 1 | -0.4 | -0.6 | –
Elp2 | 1 | -0.1 | -0.1 | –
Mes2 | 1 | 1.6 | 0.4 | –
Mes2 | 2 | 0.8 | 1.8 | 2.3
Miga | 1 | -0.2 | -0.3 | –
CG17378 | 1 | -0.4 | -0.1 | –
CG32243 | 1 | 0 | -0.1 | –
CG8192 | 1 | -0.2 | -0.4 | –
CG11596 | 1 | -0.2 | -0.9 | –
Rcd7 | 1 | -0.3 | -0.3 | –
